PubChem BioAssay AID540256 (National Center for Advancing Translational Sciences (NCATS), 2011)
In all, about 300,000 compounds went through this assay and about 3,700 (1.2%) were called active. Inconclusive means that the source gave no clear call. Such entries were picked first, then a sample of the others. Calls follow the shape of the full dose curve; tested in HEK293 cells. Potencies beside an inconclusive call are fits to weak or partial responses and may not hold up.

Assay: qHTS for Inhibitors of binding or entry into cells for Lassa Virus; also: nearly all actives have a fitted effect of over 50% in size
Details: Lassa virus pseudotype entry inhibition, cell reporter; series mostly up to 37.9 µM
Potency is read from the fitted curve at half-maximal effect.

Compound | Potency
CCN1CCN(C(=O)NC2CC(=O)N(c3ccc(OC)cc3)C2)CC1 (stereo unspecified) | inactive
CCC(Sc1nc2n[nH]c(C)c2c(=N)n1-c1cccc(Cl)c1C)C(=O)N(CC)CC (stereo unspecified) | inconclusive: 14.6 µM [inhibitor, partial curve, poor fit]
Cc1ccc(NC(=S)N2CCC(c3nc4ccccc4s3)CC2)cc1C | inconclusive: 23.1 µM [inhibitor, partial curve, poor fit]
Cc1ccc(CSc2nnc(-c3ccccn3)n2C)cc1 | inactive
Fc1ccc(N2CCN(Cc3ccccn3)CC2)cc1 | inactive
CC1CCCN(c2nc3ccsc3c(=O)s2)C1 (stereo unspecified) | inactive
CCN(CC)S(=O)(=O)c1ccc2oc(SCc3ccc(F)cc3)nc2c1 | active: 11.2 µM
O=C(NNC(=S)Nc1ccccc1)c1ccc2ncccc2c1 | inactive
COc1ccc(NC(=O)C(=O)NCC(c2ccco2)N2CCc3ccccc3C2)cc1OC (stereo unspecified) | inconclusive: 6.31 µM [inhibitor, partial curve, poor fit]
CCOC(=O)C1CCN(CC(=O)Nc2ccc(OC)c(Cl)c2)CC1 | inconclusive: 8.91 µM [inhibitor, partial curve]
CCNC(=S)N1CCN(c2nc(CC)nc3sc4c(c23)CCCC4)CC1 | inconclusive: 22.4 µM [inhibitor, single point]
CCOC(=O)C1(Cc2ccc(Cl)cc2)CCN(C(=O)C2=NNC(=O)CC2)CC1 | inconclusive: 1.12 µM [inhibitor, full curve, poor fit]
O=C(CCl)NCCN1C(=O)S/C(=C\c2cccnc2)C1=O | inconclusive: 6.31 µM [inhibitor, partial curve, poor fit]
Cn1cc(C(=O)N2CCN(c3cccc(C(F)(F)F)c3)CC2)c2c3ccccc3n(C)c2c1=O | inconclusive: 11.2 µM [inhibitor, partial curve, poor fit]
Cc1ccc(/C=N/NC(=O)Cn2cnc3ccccc32)cc1 | inconclusive: 8.91 µM [inhibitor, partial curve, poor fit]
Cc1nn(C(C)C(=O)Nc2sc3c(c2C#N)CCCC3)c(C)c1[N+](=O)[O-] (stereo unspecified) | inconclusive: 0.651 µM [inhibitor, partial curve, poor fit]
CC(C)n1cnc(S(=O)(=O)N2CCCC(C(=O)NCc3ccccc3Cl)C2)c1 (stereo unspecified) | inactive
NNC(=O)c1cc2cc(OC(F)(F)F)ccc2[nH]1 | inconclusive: 0.631 µM [inhibitor, partial curve, poor fit]
CC(C)(C)c1csc(NC(=O)c2ccncc2)n1 | inconclusive: 17.8 µM [inhibitor, partial curve, poor fit]
Cc1ccc(-n2nc3cc(C)c(NC(=S)NC(=O)/C=C/c4ccco4)cc3n2)cc1 | inconclusive: 0.82 µM [activator, full curve]
CC(C)N1C(=S)N(Cc2ccco2)C(=O)C1CC(=O)Nc1ccccc1 (stereo unspecified) | inactive
CCOC(=O)c1c(-c2ccccc2)csc1NC(=O)c1cc(-c2ccc(F)cc2)on1 | inactive

Compound | Potency
COc1ccc(OC(=O)c2c(C)nn(-c3ccccc3)c2C)cc1 | inactive
Cn1c(-c2ccc(Cl)cc2)cnc1N | inactive
CCCCn1nnc(NC(=O)c2ccco2)n1 | inconclusive: 35.5 µM [activator, partial curve, poor fit]
O=C(NC1CCCC1)C1CC(=O)N(c2ccccc2)C1 (stereo unspecified) | inconclusive: 17.8 µM [activator, single point]
CC(C)NC(=O)C1CCC(Cn2c(=O)c3sccc3n(CC(=O)NCc3ccccc3)c2=O)CC1 (stereo unspecified) | inconclusive: 10 µM [activator, partial curve, poor fit]
CCCOc1c(Cl)cc(C(=O)N(Cc2cccc(OC)c2)C2CCS(=O)(=O)C2)cc1Cl (stereo unspecified) | inactive
COc1ccc2nc(Nc3ccccc3OC)sc2c1 | inconclusive: 2.82 µM [inhibitor, full curve, poor fit]
COc1ccc2[nH]c(=O)c(CN(CCc3ccccc3)Cc3nnnn3CC3CCCO3)cc2c1 (stereo unspecified) | inconclusive: 4.11 µM [inhibitor, single point]
O=C(CCCCCn1c(=S)[nH]c2ccc(N3CCOCC3)cc2c1=O)NCc1cccc(Cl)c1 | inactive
COc1ccc(N2CCN(C(=O)COC(=O)COc3cc(C)cc(C)c3)CC2)cc1 | inconclusive: 1.26 µM [activator, partial curve, poor fit]
COc1ccccc1CNc1ccc(-c2nc(-c3ccco3)no2)cc1[N+](=O)[O-] | inconclusive: 12.6 µM [activator, partial curve, poor fit]
Cc1ccc(-n2c(C)cc(/C=N/NC(N)=S)c2C)cc1 | inconclusive: 35.5 µM [inhibitor, single point]
CN(C)C(CNC(=O)c1cccc(S(=O)(=O)N2CCN(c3ccc(F)cc3)CC2)c1)c1ccccc1 (stereo unspecified) | inconclusive: 35.5 µM [inhibitor, single point]
C=CCN1C(=O)/C(=C/c2ccc(O)c(OC)c2)S/C1=N/c1nccs1 | inconclusive: 14.6 µM [inhibitor, partial curve]
CN(CC(=O)Nc1ccccc1Br)C(=O)CCc1nc2ccccc2c(=O)[nH]1 | inconclusive: 3.16 µM [inhibitor, single point]
O=C(Nc1cc(=O)c2ccccc2o1)N1CCOCC1 | inconclusive: 5.17 µM [inhibitor, partial curve]
CN(C)CCCN(C(=O)c1ccc2c(c1)OCCO2)c1nc2ccccc2s1 | inconclusive: 35.5 µM [activator, single point]
COc1cccc(CNC(=O)CSc2c3c(nc4cc(Cl)ccc24)CCCC3)c1 | inconclusive: 15.8 µM [activator, partial curve, poor fit]
Cc1cc(C(=O)Nc2ccc(C(C)C)cc2)c2c(C)nn(-c3ccccc3)c2n1 | inconclusive: 35.5 µM [activator, single point]
COc1nc(Cl)cn(-c2ccc(C)cc2)c1=O | inactive
Cc1cc(/C=N/NC(=O)c2ccncc2)c(C)n1-c1cccc(C(F)(F)F)c1 | inconclusive: 3.55 µM [activator, partial curve, poor fit]
COc1ccc(C)cc1N(C(=O)c1snc(C(N)=O)c1N)C(C(=O)NC1CCCCC1)c1ccc(C)o1 (stereo unspecified) | inconclusive: 8.91 µM [inhibitor, partial curve, poor fit]

Compound | Potency
O=S1(=O)c2cccc(Cl)c2OC[C@H](c2ccccc2)N1Cc1cccc(F)c1 | inconclusive: 35.3 µM [inhibitor, single point]
O=C(Cn1c(NCCO)nc2ccccc21)NCCc1ccccc1 | inactive
Cc1ccsc1CN(C(=O)c1oc2cc(Br)ccc2c1C)C1CCS(=O)(=O)C1 (stereo unspecified) | inconclusive: 17.8 µM [inhibitor, single point]
O=C(CSc1nnc(NC(=O)c2ccccc2F)s1)NC1CCCC1 | inactive
CC(C)CCC(CCNCc1ccccn1)c1ccc(Cl)cc1 (stereo unspecified) | inconclusive: 20 µM [inhibitor, partial curve, poor fit]
OC(CCCN1CCCCC1)(c1ccccc1)c1ccc(C(F)(F)F)cc1 (stereo unspecified) | inactive
COc1ccccc1NS(=O)(=O)c1cc(NC(=O)COc2ccccc2F)ccc1N1CCOCC1 | inconclusive: 12.6 µM [inhibitor, single point]
C=CCSc1nnc(-c2cc3c(s2)-c2ccccc2CC3)o1 | inactive
Cc1ccccc1-n1c(C)nc2ccccc21 | inconclusive: 13 µM [inhibitor, partial curve, poor fit]
NS(=O)(=O)c1cc2c(cc1Cl)NC(C1C[C@H]3C=C[C@@H]1C3)NS2(=O)=O (stereo partly specified) | inconclusive: 6.51 µM [activator, partial curve, poor fit]
Cc1ccc(C(=O)NCC(c2cccnc2)N2CCc3ccccc32)cc1C (stereo unspecified) | inactive
Cc1ccc(-c2nc3ncccc3o2)cc1NC(=O)c1cccc(OCC(C)C)c1 | inconclusive: 35.5 µM [activator, single point]
O=C(NCC1CCCC(CNC(=O)Nc2ccc(Cl)cn2)C1)Nc1ccc(Cl)cn1 (stereo unspecified) | inconclusive: 7.08 µM [inhibitor, full curve, poor fit]
CCCS(=O)(=O)c1ccc(COC(=O)c2cccc(NC(=O)C(C)C)c2)cc1 | inconclusive: 7.08 µM [inhibitor, full curve, poor fit]
CN(C)CCOC(C1CCCCC1)C1CCCCC1 | inconclusive: 16.4 µM [inhibitor, single point]
Fc1ccc(-n2ncc3c(SCc4cccnc4)ncnc32)cc1 | inconclusive: 0.398 µM [activator, full curve, poor fit]
Cc1ccc(C)c(Nc2nn3c(=O)c4ccc(C(=O)NC5CCCCC5)cc4nc3s2)c1 | inconclusive: 35.5 µM [inhibitor, single point]
O=C(CSc1nc2c(c(=O)n1-c1ccc(Cl)cc1)SCC2)Nc1nccs1 | inactive
CN(CC(=O)Nc1cccc(F)c1)C(=O)C1CC(=O)N(Cc2ccco2)C1 (stereo unspecified) | inactive
COc1cccc(/C=N/NC(=O)NC23CC4CC(CC(C4)C2)C3)c1O | inconclusive: 11.2 µM [inhibitor, partial curve, poor fit]
Cc1cc(N2CCC(C)CC2)n2ncc(-c3ccccc3)c2n1 | inconclusive: 12.6 µM [inhibitor, single point]
COc1ccc(NC(=O)c2oc3ccccc3c2NC(=O)COc2ccccc2OC)c(OC)c1 | inconclusive: 29.1 µM [inhibitor, single point]

3 entries from above, arranged by SMILES length, largest number first:
Compound | Potency
COc1ccccc1NS(=O)(=O)c1cc(NC(=O)COc2ccccc2F)ccc1N1CCOCC1 | inconclusive: 12.6 µM [inhibitor, single point]
O=C(NCC1CCCC(CNC(=O)Nc2ccc(Cl)cn2)C1)Nc1ccc(Cl)cn1 (stereo unspecified) | inconclusive: 7.08 µM [inhibitor, full curve, poor fit]
Cc1cc(N2CCC(C)CC2)n2ncc(-c3ccccc3)c2n1 | inconclusive: 12.6 µM [inhibitor, single point]
